Laboratory results published in PubChem BioAssay AID248 (DTP/NCI, 2004).
The list shows only some results of the screen, not a fair sample: it is rich in T/C values a quarter to a half above the control, in often repeated tests (any T/C) and in doses without a T/C. Other doses and runs of a compound stand elsewhere. T/C is the treated group as % of the vehicle group. Some entries give survivors of the animals treated and no T/C: the source files T/C as zero there, which appears to mark a toxic dose or a test without result, not a measured value. Some survivor counts are full or nearly so, which does not show that the dose was tolerated: the source hardly ever lists a survival T/C far under the control, and the zero likely stands for such cases as well. Counts of survivors are from the toxicity check (mostly the fifth day) where no day follows; animals may have died later. Schedule codes are those of the source, read here as Q, the interval in days (D) or hours (H), X, the number of doses. Some entries were tested several times; their values stand side by side, smallest first. For survival time, this PubChem deposit counts one and a half times the control or more as active, and values a quarter to a half above the control carry no call in these data; other NCI protocols may use other cut-offs. Some T/C values are followed by the survivors on the day toxicity was checked, most often the fifth; without a count, all were alive then.

System: L1210 leukemia ip in BDF1 mice, survival T/C
Experiment: NCI In Vivo Anticancer Drug Screen. Data for tumor model L1210 Leukemia (intraperitoneal) in B6D2F1 (BDF1) mice
Conditions: T/C endpoint: mean survival time, higher T/C = longer survival
[1] = dose: 200.0 mg/kg/injection, schedule: Q01DX001 (ip), vehicle: saline with Tween-80
[2] = dose: 400.0 mg/kg/injection, schedule: Q01DX001 (ip), vehicle: saline with Tween-80
[3] = dose: 200.0 mg/kg/injection, schedule: Q04DX003 (ip), vehicle: saline
[4] = dose: 400.0 mg/kg/injection, schedule: Q04DX003 (ip), vehicle: saline
[5] = dose: 80.0 mg/kg/injection, schedule: Q01DX001 (ip), vehicle: saline
[6] = dose: 100.0 mg/kg/injection, schedule: Q01DX001 (ip), vehicle: saline
[7] = dose: 200.0 mg/kg/injection, schedule: Q01DX001 (ip), vehicle: saline
[8] = dose: 400.0 mg/kg/injection, schedule: Q01DX001 (ip), vehicle: saline
[9] = dose: 50.0 mg/kg/injection, schedule: Q01DX009 (ip), vehicle: saline
[10] = dose: 100.0 mg/kg/injection, schedule: Q04DX003 (ip), vehicle: saline
[11] = dose: 20.0 mg/kg/injection, schedule: Q01DX001 (ip), vehicle: saline
[12] = dose: 40.0 mg/kg/injection, schedule: Q01DX001 (ip), vehicle: saline
[13] = dose: 50.0 mg/kg/injection, schedule: Q01DX001 (ip), vehicle: saline

CC[As](=O)(O)c1ccc([N+](=O)[O-])cc1
survivor count [1]: 0 of 6
survivor count [2]: 0 of 6

CS(C)=O.CS(C)=O.[Cl][Sn]([Cl])([Cl])[Cl]
survivor count (dose: 200.0 mg/kg/injection, schedule: Q04DX003 (ip), vehicle: Klucel (hydroxypropylcellulose) (HPC)): 6 of 6
survivor count (dose: 225.0 mg/kg/injection, schedule: Q01DX009 (ip), vehicle: Klucel (hydroxypropylcellulose) (HPC)): 4 of 6
survivor count (dose: 335.0 mg/kg/injection, schedule: Q01DX009 (ip), vehicle: Klucel (hydroxypropylcellulose) (HPC)): 1 of 6
survivor count (dose: 400.0 mg/kg/injection, schedule: Q04DX003 (ip), vehicle: Klucel (hydroxypropylcellulose) (HPC)): 6 of 6

COC(=O)c1nc(-c2ccc3c(n2)C(=O)C(N)=C(OC)C3=O)c(N)c(-c2ccc(OC)c(OC)c2O)c1C
survivor count (dose: 4.0 mg/kg/injection, schedule: Q01DX001 (ip), vehicle: water): 3 of 6
survivor count (dose: 4.0 mg/kg/injection, schedule: Q01DX015 (ip), vehicle: water): 4 of 6
survivor count (dose: 8.0 mg/kg/injection, schedule: Q01DX001 (ip), vehicle: water): 0 of 6

CC(N(N=O)c1ccccc1)S(=O)(=O)O (stereo unspecified)
survivor count (dose: 400.0 mg/kg/injection, schedule: Q01DX009 (ip), vehicle: saline): 6 of 6

COc1cc(OC)c(/C=C/c2cc3ccccc3c[n+]2C)c(OC)c1
survivor count (dose: 50.0 mg/kg/injection, schedule: Q01DX009 (ip), vehicle: saline with Tween-80): 0 of 3
survivor count (dose: 100.0 mg/kg/injection, schedule: Q01DX009 (ip), vehicle: saline with Tween-80): 0 of 3
survivor count (dose: 200.0 mg/kg/injection, schedule: Q01DX009 (ip), vehicle: saline with Tween-80): 0 of 3

CN(C)CCC1CCCCN1 (stereo unspecified)
survivor count [3]: 3 of 6
survivor count [4]: 2 of 6

c1ccc([P+](c2ccccc2)(c2ccccc2)C2CC2)cc1
survivor count [5]: 0 of 6
survivor count [6]: 0 of 4
survivor count [7]: 0 of 4
survivor count [8]: 0 of 4

Cn1cnc2ncnn2c1=S
survivor count (dose: 100.0 mg/kg/injection, schedule: Q01DX009 (ip), vehicle: saline): 3 of 6
survivor count (dose: 200.0 mg/kg/injection, schedule: Q01DX009 (ip), vehicle: saline): 0 of 6
survivor count [4]: 4 of 6

CCN(C)CCC(CNC(=O)CN(CC)CC)(c1cccc2ccccc12)C(C)C (stereo unspecified)
survivor count [4]: 0 of 6

CC(=O)NC(C)(C)Cc1ccccc1
survivor count (dose: 200.0 mg/kg/injection, schedule: Q01DX001 (ip), vehicle: carboxymethylcellulose (CMC)): 3 of 4

ClCCCN1CCCCC1CCl (stereo unspecified)
T/C (dose: 6.25 mg/kg/injection, schedule: Q01DX009 (ip), vehicle: saline): 136 % of control
T/C (dose: 12.5 mg/kg/injection, schedule: Q01DX009 (ip), vehicle: saline): 136 and 148 % of control
T/C (dose: 12.5 mg/kg/injection, schedule: Q04DX003 (ip), vehicle: saline): 125 % of control
survivor count (dose: 25.0 mg/kg/injection, schedule: Q01DX009 (ip), vehicle: saline): 5 of 6 and 6 of 6
T/C (dose: 25.0 mg/kg/injection, schedule: Q04DX003 (ip), vehicle: saline): 147 % of control
survivor count [9]: 0 of 6
survivor count (dose: 50.0 mg/kg/injection, schedule: Q04DX003 (ip), vehicle: saline): 4 of 6 and 6 of 6
survivor count [10]: 3 of 6
survivor count [3]: 0 of 6
survivor count [4]: 0 of 6

CCOC(=O)c1ccc(NC(=O)Nc2ccccc2OC)cc1
survivor count (dose: 100.0 mg/kg/injection, schedule: Q04DX003 (ip), vehicle: saline with Tween-80): 6 of 6
survivor count (dose: 400.0 mg/kg/injection, schedule: Q04DX002 (ip), vehicle: saline with Tween-80): 6 of 6

C=CCN(CC=C)P(=O)(N1CC1)N1CC1C (stereo unspecified)
T/C (dose: 0.75 mg/kg/injection, schedule: Q01DX015 (ip), vehicle: carboxymethylcellulose (CMC)): 129 % of control
T/C (dose: 1.5 mg/kg/injection, schedule: Q01DX015 (ip), vehicle: carboxymethylcellulose (CMC)): 129 % of control
T/C (dose: 3.0 mg/kg/injection, schedule: Q01DX015 (ip), vehicle: carboxymethylcellulose (CMC)): 128 % of control
T/C (dose: 5.0 mg/kg/injection, schedule: Q01DX001 (ip), vehicle: saline): 131 % of control
survivor count (dose: 12.0 mg/kg/injection, schedule: Q01DX009 (ip), vehicle: saline): 6 of 6
survivor count [11]: 2 of 4
survivor count (dose: 24.0 mg/kg/injection, schedule: Q01DX009 (ip), vehicle: saline): 6 of 6
survivor count [12]: 3 of 4
survivor count (dose: 48.0 mg/kg/injection, schedule: Q01DX009 (ip), vehicle: saline): 1 of 6
survivor count [13]: 0 of 6
survivor count [5]: 4 of 4
survivor count [6]: 4 of 6
survivor count [7]: 0 of 6
survivor count [8]: 0 of 6

Oc1ccc2ccccc2c1-c1nc2ccccc2s1
survivor count (dose: 100.0 mg/kg/injection, schedule: Q04DX003 (ip), vehicle: other): 0 of 3 and 1 of 3
survivor count (dose: 200.0 mg/kg/injection, schedule: Q04DX003 (ip), vehicle: other): 0 of 3
survivor count (dose: 400.0 mg/kg/injection, schedule: Q04DX003 (ip), vehicle: other): 0 of 3

CCNC1C2CCC(C2)C1c1ccccc1 (stereo unspecified)
survivor count [9]: 2 of 6
survivor count [10]: 1 of 4
survivor count [3]: 0 of 4
survivor count [4]: 0 of 4

O=C(OCC1OC(n2c(=O)[nH]cc(F)c2=O)C(OC(=O)c2ccccc2)C1OC(=O)c1ccccc1)c1ccccc1 (stereo unspecified)
T/C (dose: 12.5 mg/kg/injection, schedule: Q01DX005 (ip), vehicle: saline): 130 % of control
T/C (dose: 20.0 mg/kg/injection, schedule: Q01DX005 (ip), vehicle: Klucel (hydroxypropylcellulose) (HPC)): 131 % of control
T/C (dose: 25.0 mg/kg/injection, schedule: Q01DX005 (ip), vehicle: saline): 128 % of control
T/C (dose: 80.0 mg/kg/injection, schedule: Q01DX005 (ip), vehicle: Klucel (hydroxypropylcellulose) (HPC)): 143 % of control
T/C (dose: 100.0 mg/kg/injection, schedule: Q01DX005 (ip), vehicle: saline): 125 % of control

O=P(O)(O)CO
T/C (dose: 200.0 mg/kg/injection, schedule: Q04DX002 (ip), vehicle: saline): 126 % of control [2 of 3 alive]
survivor count (dose: 400.0 mg/kg/injection, schedule: Q04DX002 (ip), vehicle: saline): 0 of 3 and 1 of 3
survivor count (dose: 800.0 mg/kg/injection, schedule: Q04DX002 (ip), vehicle: saline): 0 of 3

c1ccc(C[n+]2ccc(-c3cc[n+](Cc4ccccc4)cc3)cc2)cc1
survivor count (dose: 10.0 mg/kg/injection, schedule: Q01DX001 (ip), vehicle: saline): 0 of 4
survivor count [11]: 0 of 4
survivor count [12]: 0 of 4
survivor count [13]: 0 of 4
survivor count [5]: 0 of 4
survivor count [6]: 0 of 4
survivor count [7]: 0 of 4
survivor count [8]: 0 of 4

CN1C2CCCCC1CC(=O)NC2 (stereo unspecified)
survivor count (dose: 300.0 mg/kg/injection, schedule: Q01DX001 (ip), vehicle: saline): 0 of 6

O=C1C(Cl)=C(NC2CCCC2)C(=O)c2ccccc21
survivor count (dose: 50.0 mg/kg/injection, schedule: Q01DX001 (ip), vehicle: saline with Tween-80): 2 of 6
survivor count (dose: 100.0 mg/kg/injection, schedule: Q01DX001 (ip), vehicle: saline with Tween-80): 0 of 6
survivor count [1]: 0 of 6
survivor count [2]: 0 of 6

CSC(=S)NN
survivor count (dose: 16.0 mg/kg/injection, schedule: Q04DX002 (ip), vehicle: saline): 1 of 3
survivor count (dose: 32.0 mg/kg/injection, schedule: Q04DX002 (ip), vehicle: saline): 0 of 3

C(=C\n1ccnc1)/c1ccccc1
survivor count (dose: 400.0 mg/kg/injection, schedule: Q04DX003 (ip), vehicle: gum acacia): 0 of 6
